# Data from publication PMC7819943, “Rice protein-binding microarrays: a tool to detect cis-acting elements near promoter regions in rice”.
# Sequences of proteins named here, by UniProt entry; tags and fusion partners are left off.
# UniProt Q0JBA9, entry or part of it: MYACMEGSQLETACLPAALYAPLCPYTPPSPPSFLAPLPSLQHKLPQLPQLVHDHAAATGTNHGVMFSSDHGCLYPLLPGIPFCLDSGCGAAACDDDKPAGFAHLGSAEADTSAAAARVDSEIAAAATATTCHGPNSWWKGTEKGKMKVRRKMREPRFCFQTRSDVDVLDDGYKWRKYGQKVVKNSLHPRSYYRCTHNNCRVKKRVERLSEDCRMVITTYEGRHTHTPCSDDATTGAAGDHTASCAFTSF
# Some of the results follow.
# Molecular target: OsWRKY34 (Oryza sativa, UniProt Q0JBA9 1-250)
# Assay: protein-binding microarray (RPBM); PBS, 2% BSA, 51.3 ng/ul salmon testes DNA, 50 uM zinc acetate, 200 nM TF, 25 C, 1 h; high values mean tight binding
# Conditions: protein: recombinant; tags: N-terminal polyhistidine and DsRed monomer fusion (pET32a); label: CyDye5-dUTP incorporated in the synthesized complementary strand; 3' TTTTT single-stranded linker to array surface; dsDNA, one strand shown
# Outline: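 A custom Agilent array was converted to double-stranded form by primer extension with Cy5-dUTP and blocked with 2% BSA. Protein at 200 nM in PBS with 2% BSA, salmon testes DNA and 50 µM zinc acetate was applied for 1 h at 25 °C, followed by washing. The proteins were polyhistidine–DsRed N-terminal fusions of transcription factors, expressed in E. coli BL21-CodonPlus and Ni–NTA-purified. The binding signal is per-feature fluorescence intensity (arbitrary units) from an Axon 4000B scanner.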
row,Sequence,binding signal
1,ACGTACCAGCTCACTATCTCCATCACAAACGTTGAAAACGCGGAGTCACCTAGTGCAG,9020 fluorescence intensity (a.u.)
2,GTACTCCCTCTGACCCTAAATATTTGACGTCGTTGACTTTCGGAGTCACCTAGTGCAG,16300 fluorescence intensity (a.u.)
3,CCGCCTCCGCCTCCGCATCTACGCCTGATTGATCCCCACCCGGAGTCACCTAGTGCAG,8560 fluorescence intensity (a.u.)
4,GCTTGGGAATTGGGATGCTGGGAGAAACAAAAATAATAATCGGAGTCACCTAGTGCAG,8940 fluorescence intensity (a.u.)
5,ATGGAGAGTTGCATTCATATCCTGTACCTTTGTTTATCTACGGAGTCACCTAGTGCAG,10800 fluorescence intensity (a.u.)
6,TTGTACCTCCATATAACCCAAGCAGTTAGCTAGCACTCAGCGGAGTCACCTAGTGCAG,8320 fluorescence intensity (a.u.)
7,TTGAGATTCCTGCTGGGGCTGGGGTTGGGTTGAGATTCCCCGGAGTCACCTAGTGCAG,14600 fluorescence intensity (a.u.)
8,CACCGATTTCTCCTCATTGAGCGAGCCTTGTGCCAACCTTCGGAGTCACCTAGTGCAG,10500 fluorescence intensity (a.u.)
9,GTTTTGGCCCACTCTATTTCCAGTTTAGAGAGCCCAAATTCGGAGTCACCTAGTGCAG,8500 fluorescence intensity (a.u.)
10,AACCTCCATCACCGGTGGACTCCACCCTATCCTCTGCAGCCGGAGTCACCTAGTGCAG,9570 fluorescence intensity (a.u.)
11,CTGCGCAATGCCTGCTGCCGTGCTCCGTCTCGAACTCTCGCGGAGTCACCTAGTGCAG,8040 fluorescence intensity (a.u.)
12,GACCCGGCGGATCCGAGCCATCTGACATCCCCACTACTTCCGGAGTCACCTAGTGCAG,8830 fluorescence intensity (a.u.)
13,GGCGGTGGCGGCGGGGAGTTGGTGCGAGGGCGGCGACGCTCGGAGTCACCTAGTGCAG,9370 fluorescence intensity (a.u.)
14,TATTATATTGCAATTTCCATCCATCCGTTATATATACTTTCGGAGTCACCTAGTGCAG,13500 fluorescence intensity (a.u.)
15,GTATAGTCAGCTGGTTATGCAGTGCATATCTATCTCATACCGGAGTCACCTAGTGCAG,9200 fluorescence intensity (a.u.)
16,GAAAAAGTCAACGGCGTCATCTATTAAAAACGGGACTAGTCGGAGTCACCTAGTGCAG,8070 fluorescence intensity (a.u.)
17,CTTCAAACTTTTACTTTTTCTATCACATCAAAACTTTCTTCGGAGTCACCTAGTGCAG,8690 fluorescence intensity (a.u.)
18,TTCGTCTCCGGTCTTCGTTTTATCCCCTTCCTTCGTCTTCCGGAGTCACCTAGTGCAG,10200 fluorescence intensity (a.u.)
19,CGCAGCCACGTGCATTCTTACGTACTCATCGGCGCATCGGCGGAGTCACCTAGTGCAG,9030 fluorescence intensity (a.u.)
20,ATATATATATATATATATATATATATATATATATCTCCTACGGAGTCACCTAGTGCAG,9040 fluorescence intensity (a.u.)
21,CCTTTTTTTTGGCGCAATATTTTTTTCTGTTTTTTTCTTTCGGAGTCACCTAGTGCAG,8030 fluorescence intensity (a.u.)

# As a working copy, some entries already given:
row,Sequence,binding signal
15,GTATAGTCAGCTGGTTATGCAGTGCATATCTATCTCATACCGGAGTCACCTAGTGCAG,9200 fluorescence intensity (a.u.)
16,GAAAAAGTCAACGGCGTCATCTATTAAAAACGGGACTAGTCGGAGTCACCTAGTGCAG,8070 fluorescence intensity (a.u.)

# Going on with the list:

row,Sequence,binding signal
1,GTCCTGTCAAGAGCGTGCATTATTGATCCATTTACCTGAACGGAGTCACCTAGTGCAG,8370 fluorescence intensity (a.u.)
2,AGATTTTGTTGACTGTTGTTGGCTCTTGCCTTTTGTGTGACGGAGTCACCTAGTGCAG,9740 fluorescence intensity (a.u.)
3,TTAATTATTATAATTGTTTTACTACTTTCAACTACTGTTTCGGAGTCACCTAGTGCAG,8620 fluorescence intensity (a.u.)
4,CACAAACATGCAACTTAAAATTCACTTTACATGTCACACCCGGAGTCACCTAGTGCAG,8130 fluorescence intensity (a.u.)
5,CTCTCTCCGGCACACAAAACGATGTTCGTATTAATACGTACGGAGTCACCTAGTGCAG,8560 fluorescence intensity (a.u.)
6,TTGGTCGGCTTCCGTTCCTTGGGTCGTCGTCATCGCCGTCCGGAGTCACCTAGTGCAG,8250 fluorescence intensity (a.u.)
7,AGAGGGGAGTGGGGTGGTAATTTAAACTTTTTCTAAAAATCGGAGTCACCTAGTGCAG,13800 fluorescence intensity (a.u.)
8,GCGCGCGCGTGGTCCATACCCACCTTTTTTGTCGCGTCGCCGGAGTCACCTAGTGCAG,10500 fluorescence intensity (a.u.)
9,AAATTGTTTCCCCGGATTTCTCATGCTAACGTCTAACCTCCGGAGTCACCTAGTGCAG,8640 fluorescence intensity (a.u.)
10,TTTTCTTTTTGCAATCATTACAACTAATTCTTCTTCTTCTCGGAGTCACCTAGTGCAG,8770 fluorescence intensity (a.u.)
11,GCAGAAATTGCATTGGTTCTAATTGATATCCCAGAACACACGGAGTCACCTAGTGCAG,9880 fluorescence intensity (a.u.)
12,TCCTATATGGTGGACACCAGCTCTACAATGGTTCTCCTACCGGAGTCACCTAGTGCAG,9720 fluorescence intensity (a.u.)
13,ACTATATATATACACTACGGTTGACAAAGACATCCCAACACGGAGTCACCTAGTGCAG,8200 fluorescence intensity (a.u.)
14,CTGGGTTATCGAAATCTCACATCCTTCATTTTTTTATGTTCGGAGTCACCTAGTGCAG,10700 fluorescence intensity (a.u.)
15,AGTATTTAGGTAGCTTGTTTTTTCTTTTTTTTTAAGAAACCGGAGTCACCTAGTGCAG,11300 fluorescence intensity (a.u.)
16,GACACATGTGATTTTTTTGACAAATGTTTGACTATTTGTTCGGAGTCACCTAGTGCAG,8120 fluorescence intensity (a.u.)
17,TAACTGTGTGTGGCCAACCTACCTAGAATCTTTCTTGATCCGGAGTCACCTAGTGCAG,10200 fluorescence intensity (a.u.)
18,AATACATCATTTTTTTCATTTTGTTGAGACGCTGAGTTGCCGGAGTCACCTAGTGCAG,8900 fluorescence intensity (a.u.)
19,ACCCCACCACCTCGACATTATATATCATCGGAGTTTTCTACGGAGTCACCTAGTGCAG,11200 fluorescence intensity (a.u.)
20,ACTAAGCTGCGCCTGTCTACTTGTCAAGCTCTACAAAACCCGGAGTCACCTAGTGCAG,10100 fluorescence intensity (a.u.)
21,ATTATCCGCGGGCCTTCTGTTTGTTGCTGGGCCCTGGGCCCGGAGTCACCTAGTGCAG,9180 fluorescence intensity (a.u.)
